The target of the experiment is β-catenin (human (in human chondrocytes)) (UniProt P35222). Nature of the experiment: co-IP; co-immunoprecipitation in human chondrocytes (HCs); which protein was precipitated is not told.

Amino acid sequences for entries named in this document (tags omitted).
UniProt P35222: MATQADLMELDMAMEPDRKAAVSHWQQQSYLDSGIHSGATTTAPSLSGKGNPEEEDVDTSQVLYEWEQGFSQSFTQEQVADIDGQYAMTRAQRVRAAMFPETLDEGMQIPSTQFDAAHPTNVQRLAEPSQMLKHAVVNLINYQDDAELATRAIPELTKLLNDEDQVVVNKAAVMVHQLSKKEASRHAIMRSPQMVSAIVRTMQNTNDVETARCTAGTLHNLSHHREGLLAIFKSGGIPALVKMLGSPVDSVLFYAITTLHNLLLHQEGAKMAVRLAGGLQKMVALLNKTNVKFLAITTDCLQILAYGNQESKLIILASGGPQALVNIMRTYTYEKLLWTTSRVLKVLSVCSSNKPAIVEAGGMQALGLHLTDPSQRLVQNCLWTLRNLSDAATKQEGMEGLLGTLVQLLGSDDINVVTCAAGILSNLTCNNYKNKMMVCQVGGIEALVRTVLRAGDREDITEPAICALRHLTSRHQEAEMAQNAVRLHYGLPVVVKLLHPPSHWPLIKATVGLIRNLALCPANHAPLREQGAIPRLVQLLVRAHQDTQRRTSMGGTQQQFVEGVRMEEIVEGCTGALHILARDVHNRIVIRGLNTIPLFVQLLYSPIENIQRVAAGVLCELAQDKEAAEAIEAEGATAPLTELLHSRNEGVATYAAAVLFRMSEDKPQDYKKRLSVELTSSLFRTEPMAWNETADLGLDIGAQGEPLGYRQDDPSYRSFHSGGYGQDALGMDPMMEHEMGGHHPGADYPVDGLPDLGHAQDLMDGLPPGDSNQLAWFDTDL
UniProt Q9H1B7: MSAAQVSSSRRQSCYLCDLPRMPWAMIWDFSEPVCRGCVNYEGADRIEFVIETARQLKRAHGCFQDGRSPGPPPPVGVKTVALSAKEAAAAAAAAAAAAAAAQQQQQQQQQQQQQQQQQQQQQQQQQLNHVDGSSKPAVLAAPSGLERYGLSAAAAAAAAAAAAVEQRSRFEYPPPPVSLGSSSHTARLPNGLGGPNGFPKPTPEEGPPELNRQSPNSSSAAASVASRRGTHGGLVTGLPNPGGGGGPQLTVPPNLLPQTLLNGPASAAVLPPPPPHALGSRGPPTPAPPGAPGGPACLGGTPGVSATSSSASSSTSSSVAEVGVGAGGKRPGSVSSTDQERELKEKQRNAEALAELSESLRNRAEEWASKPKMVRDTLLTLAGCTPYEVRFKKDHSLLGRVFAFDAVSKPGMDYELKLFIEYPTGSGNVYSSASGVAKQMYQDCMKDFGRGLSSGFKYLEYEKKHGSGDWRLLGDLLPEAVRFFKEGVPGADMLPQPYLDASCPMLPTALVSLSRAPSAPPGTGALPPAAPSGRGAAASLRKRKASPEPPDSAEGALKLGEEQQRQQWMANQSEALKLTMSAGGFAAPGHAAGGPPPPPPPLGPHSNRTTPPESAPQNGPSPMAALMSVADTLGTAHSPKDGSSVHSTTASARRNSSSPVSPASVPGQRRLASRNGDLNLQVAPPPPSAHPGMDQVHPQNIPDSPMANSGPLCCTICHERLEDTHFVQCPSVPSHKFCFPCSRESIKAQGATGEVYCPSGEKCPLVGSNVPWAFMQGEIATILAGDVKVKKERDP

Results are given in words; binding and its absence hold for the method and conditions named. In cells and extracts the contact can be indirect. Some entries that bind do so weakly or less than the wild type.

Take “Interferon Regulatory Factor 2 Binding Protein Like (IRF2BPL) (from UniProt Q9H1B7 1-796)”: the binding entry is recorded as “binds”.

The values above are taken from article PMC9816929.
